These results are taken from publication PMC9838217, “Structure of SALL4 zinc finger domain reveals link between AT-rich DNA binding and Okihiro syndrome”.

For at least one entry, the source does not settle the construct or the ends of the probe. At least one verdict rests on a figure or table, not on a statement of the authors. Where a protein sequence is shown, tags need not be part of it.

The data set deals with T1, SALL4 ZFC4 WT (Mus musculus) (UniProt Q8BX22).
T1 sequence (looked up): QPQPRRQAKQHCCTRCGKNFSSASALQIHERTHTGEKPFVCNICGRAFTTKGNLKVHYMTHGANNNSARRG
The data set can be described thus: SAXS. To be noted: ZFC4-dsDNA complex; recombinant protein; residues 870-940.

As to “CATATTAATATC (double strand) [SAXS AT-rich dsDNA]”, the binding result is on record as “binds”.
